Results published in patent publication US11143649B2, “Free-solution response function interferometry” (VANDERBILT UNIVERSITY, priority 2016, dated 2021).

System: Recoverin
Assay: BSI free-solution binding assay
Protocol: None have an indefinite shelf life.
Several approaches can be used to find this value.
Independent of this prediction, free-solution measurements were performed with BSI to determine the KD for both the recoverin and CAII systems. The saturation isotherm binding curves for these experiments are presented as blue lines in FIG. 15A and FIG. 15B. To further illustrate the correlation between measured and estimated FreeSRF, χexp values were plotted on FIG. 13A and FIG. 13B showing where they lie on the training-set line.

## [Ca+2] [Ca^2+]
Binding signal, receptor Recoverin
  BSI ΔRIU: 4.42E−05 RIU
Molar refractometry from ρexp, β and CBmax
  Experimental Chi (RIU/M): 78.0 RIU/M
